{"source": "paper PMC10415282", "about": "“High resolution cryo-EM and crystallographic snapshots of the actinobacterial two-in-one 2-oxoglutarate dehydrogenase” (Nature Communications, 2023)", "binders": {"B1": {"name": "Mycobacterium smegmatis GarA (protein, UniProt A0QYG2 1-158)", "chain": "MTDKDSNLGADQSEDVTVETTSVFRADFLNELDAPAAAGTEGAVSGVEGLPSGSALLVVKRGPNAGSRFLLDQPTTSAGRHPDSDIFLDDVTVSRRHAEFRLEGGEFQVVDVGSLNGTYVNREPVDSAVLANGDEVQIGKFRLVFLTGPKSDDSGSNA"}}, "target": "T1, Mycobacterium smegmatis KGD, full-length (Mycobacterium smegmatis) (UniProt A0R2B1)", "T1 sequence": "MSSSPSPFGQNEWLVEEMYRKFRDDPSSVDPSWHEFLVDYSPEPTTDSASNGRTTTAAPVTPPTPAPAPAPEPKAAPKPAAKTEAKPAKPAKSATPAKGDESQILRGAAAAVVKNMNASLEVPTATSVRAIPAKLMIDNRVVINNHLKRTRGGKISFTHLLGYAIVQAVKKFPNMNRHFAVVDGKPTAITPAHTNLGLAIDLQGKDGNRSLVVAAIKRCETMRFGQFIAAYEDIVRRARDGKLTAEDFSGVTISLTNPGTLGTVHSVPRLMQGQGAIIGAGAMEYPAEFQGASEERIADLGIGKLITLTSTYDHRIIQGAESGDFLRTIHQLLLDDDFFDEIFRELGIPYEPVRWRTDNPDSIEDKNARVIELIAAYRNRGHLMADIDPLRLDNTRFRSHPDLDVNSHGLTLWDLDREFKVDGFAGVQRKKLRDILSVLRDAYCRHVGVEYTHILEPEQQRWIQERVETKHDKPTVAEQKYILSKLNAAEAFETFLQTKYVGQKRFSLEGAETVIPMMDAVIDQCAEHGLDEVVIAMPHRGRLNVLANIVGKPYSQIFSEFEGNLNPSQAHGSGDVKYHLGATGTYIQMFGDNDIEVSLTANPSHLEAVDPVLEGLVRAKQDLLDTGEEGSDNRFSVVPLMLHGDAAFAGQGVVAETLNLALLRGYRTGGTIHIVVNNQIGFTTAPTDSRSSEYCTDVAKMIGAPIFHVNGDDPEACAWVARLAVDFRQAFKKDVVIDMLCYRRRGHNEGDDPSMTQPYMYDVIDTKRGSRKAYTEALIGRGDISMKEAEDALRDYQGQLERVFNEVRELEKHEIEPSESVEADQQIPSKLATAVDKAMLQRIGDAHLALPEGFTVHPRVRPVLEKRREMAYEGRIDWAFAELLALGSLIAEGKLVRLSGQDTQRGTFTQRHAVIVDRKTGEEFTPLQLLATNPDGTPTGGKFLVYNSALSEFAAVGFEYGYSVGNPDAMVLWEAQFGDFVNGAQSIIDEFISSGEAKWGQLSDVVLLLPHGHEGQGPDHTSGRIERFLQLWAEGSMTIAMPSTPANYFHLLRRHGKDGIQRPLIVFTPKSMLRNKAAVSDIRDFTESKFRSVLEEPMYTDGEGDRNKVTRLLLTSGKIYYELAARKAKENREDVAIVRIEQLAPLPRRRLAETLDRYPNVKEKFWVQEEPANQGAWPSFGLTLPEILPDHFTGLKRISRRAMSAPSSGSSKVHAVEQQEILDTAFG", "assay": "crystal structure; MsKGD (10 mg/ml, 2 mM ThDP, 5 mM MgCl2) co-crystallised with GarA at 1:1 molar ratio; 0.1 M bicine pH 8.0, 30% PEG550MME, 0.2 M NaCl; 4.6 Å; both purified", "note": "No constants are given. Whether binding was seen depends on the method and setting. Some binding calls cover weakened binding; strength is not graded here. Sequences can lack the tags named with a protein.", "data": [{"binder": "B1", "values": [{"measurement": "binding", "value": "binds"}]}]}
